Source: PubChem BioAssay AID1159578 (Peter MacCallum Cancer Centre, 2015)
In all, the deposit lists about 18,000 reagents; this is a random part of them. Over the whole deposit, about 1,030 (5.7%) got an active call. 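Inactive calls also include pools with fewer than 3300 nuclei, whose migration was not assessed.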 Raw values are not corrected between plates. Entries without a mark were called inactive. Further read-outs or replicates are left out here. Reagent sequences are not shown.

Assay: 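Genome-wide hunt for genes controlling movement of lymphatic endothelial cells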 (primary screen)
Cell system: human lymphatic endothelial cells
Reagent: siRNA pool against human genes, 40 nM
Timing: 48 h after transfection
Measurement: 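High-content imaging of dye-stained cells in a scratch assay measures filled wound area and nuclei per well; duplicate means given as ratio to mock and robust z-score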
Scale: migration robust z-score: higher = faster migration into the scratch; nuclei per well: higher = more cells in the well
Call rule: 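Pools averaging fewer than 3300 nuclei are never called; remaining pools count as changed when migration robust z lies outside -2 to 2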
Calls: active = migration changed; inactive = no migration change, or too few cells

gene | migration robust z-score | nuclei per well, duplicate mean
ZNF143 | 1.55 | 6694
TMEM80 | -0.28 | 5924
APEX1 | -0.72 | 3605
HAT1 | 1.03 | 6816
FRZB | 0.64 | 5279
TAF2 | -0.1 | 5258
ALDH1B1 | -0.26 | 6232
COL3A1 | -0.13 | 5510
MOCS3 | 0.26 | 4582
MTMR3 | -0.78 | 5816
ACOT1 | 0.78 | 6614
KIDINS220 | -0.05 | 5220
SLC44A3 | -0.16 | 5536
LRRC26 | 0.65 | 5506
OR10H3 | 0.06 | 6186
CEND1 | -0.18 | 6398
SLFN11 | -0.39 | 5719
FLCN | -3.46 (active) | 5315
SLC17A8 | -1.77 | 7356
ZNF205 | -0.6 | 5814
PALLD | 1.66 | 6823
APOBEC1 | -1.12 | 4480
PGA3 | -0.2 | 5084
C19orf47 | -0.84 | 4741
SNW1 | -1.9 | 2790
LSM14B | -0.46 | 4658
OR12D3 | 0.58 | 5986
CYP8B1 | -1.03 | 6122

Reprinted from the listing (7 entries):
gene | migration robust z-score | nuclei per well, duplicate mean
ZNF143 | 1.55 | 6694
TMEM80 | -0.28 | 5924
APEX1 | -0.72 | 3605
HAT1 | 1.03 | 6816
FRZB | 0.64 | 5279
TAF2 | -0.1 | 5258
ALDH1B1 | -0.26 | 6232

More entries follow:
gene | migration robust z-score | nuclei per well, duplicate mean
ASTN1 | -0.54 | 6656
SYT10 | -1.72 | 5382
TRAPPC9 | -1.29 | 4939
MROH7 | 1.11 | 6221
WNT7A | -0.91 | 6138
PTPN21 | 0.32 | 5548
NHLRC3 | 1.2 | 5525
TBP | -0.65 | 5358
PYM1 | -0.14 | 7072
GTPBP8 | -1.09 | 4462
TM9SF1 | 0.5 | 5634
SPOCK1 | -0.33 | 6374
RHOH | 0.02 | 6735
EMC2 | -0.9 | 6379
KDM5B | 1.27 | 6670
ARR3 | 0.92 | 6523
SENP7 | 0.32 | 4740
ARHGEF16 | 0 | 6076
EQTN | 0.89 | 5492
SEMA6A | -1.4 | 4040
MEAF6 | -0.73 | 7134
CCNI | -0.1 | 5119
ACADL | -0.78 | 6080
HNRNPA3 | 1.92 | 6894
SLC43A1 | 0.52 | 5458
GP1BA | 0.36 | 5680
ZNF428 | 1.5 | 7174
SPANXN3 | -2.25 (active) | 5974
CHP2 | -0.1 | 5285
